The list shows a part of the results.
Each sequence was assayed against T1, OsSMF1 (Oryza sativa, UniProt Q6ZLB0 1-436) (assay: protein-binding microarray (RPBM); PBS, 2% BSA, 51.3 ng/ul salmon testes DNA, 50 uM zinc acetate, 200 nM TF, 25 C, 1 h; high values mean tight binding). Settings: protein: recombinant; tags: N-terminal polyhistidine and DsRed monomer fusion (pET32a); chain copies: 2; label: CyDye5-dUTP incorporated in the synthesized complementary strand; 3' TTTTT single-stranded linker to array surface; dsDNA, one strand shown.
T1 sequence: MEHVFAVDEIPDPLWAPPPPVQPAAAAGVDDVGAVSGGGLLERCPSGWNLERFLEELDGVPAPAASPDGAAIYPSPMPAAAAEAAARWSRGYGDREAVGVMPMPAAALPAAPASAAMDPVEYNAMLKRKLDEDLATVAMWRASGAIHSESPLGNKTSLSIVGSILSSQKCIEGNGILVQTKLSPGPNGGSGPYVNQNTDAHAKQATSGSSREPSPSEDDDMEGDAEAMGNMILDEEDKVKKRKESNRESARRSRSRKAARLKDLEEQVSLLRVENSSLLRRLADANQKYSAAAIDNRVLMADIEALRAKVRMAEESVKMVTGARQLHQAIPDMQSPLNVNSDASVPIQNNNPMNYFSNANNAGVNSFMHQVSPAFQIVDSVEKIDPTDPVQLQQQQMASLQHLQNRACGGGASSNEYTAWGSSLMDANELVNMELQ
Outline: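 In PBS with 2% BSA, salmon testes DNA and 50 µM zinc acetate, 200 nM protein was incubated on a custom Agilent array at 25 °C for 1 h and then washed off. The array had been made double-stranded by primer extension with Cy5-dUTP and blocked with 2% BSA. The proteins were transcription factors fused N-terminally to polyhistidine and DsRed, expressed in E. coli BL21-CodonPlus and purified on Ni–NTA. The binding signal is per-feature fluorescence intensity (arbitrary units) from an Axon 4000B scanner.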

| Sequence | binding signal |
| --- | --- |
| CTCCTCCTCCTCCAGACCTCCACGCGAGCGTGCCCCGGGGCGGAGTCACCTAGTGCAG | 4470 fluorescence intensity (a.u.) |
| AGATTGTTCACAAAATGTACATCTCTTATAATTATATAAGCGGAGTCACCTAGTGCAG | 14600 fluorescence intensity (a.u.) |
| TGCTCCGCACAGGGCCTGACGCGACGAGATGACATGGTCGCGGAGTCACCTAGTGCAG | 4080 fluorescence intensity (a.u.) |
| CAGCCGCCAGCGCAACGGCCGCCGGCCGTCCGCGTCAGCCCGGAGTCACCTAGTGCAG | 11500 fluorescence intensity (a.u.) |
| TCTTTCTTGGTGTTTGTTCAATATTTGTTTCATCCATGCTCGGAGTCACCTAGTGCAG | 21900 fluorescence intensity (a.u.) |
| GGAAGGGAGAGAGATGACTCATCCCCACACGTGGGACCCACGGAGTCACCTAGTGCAG | 10600 fluorescence intensity (a.u.) |
| TGCTGCTATAGATCTAGTCACTGTTTGCGCCATACTCTTGCGGAGTCACCTAGTGCAG | 3600 fluorescence intensity (a.u.) |
| ATCCTGACGCATCTCTGAACACAAGATGACGCATTGTGCCCGGAGTCACCTAGTGCAG | 9450 fluorescence intensity (a.u.) |
| AGATAAGTGATGTGGTTGATACAGACAGTGGGGTGCATATCGGAGTCACCTAGTGCAG | 3760 fluorescence intensity (a.u.) |
| ATTGACATGGAGTCATGGACACTCTCCCTGCCTCCTCCCTCGGAGTCACCTAGTGCAG | 3370 fluorescence intensity (a.u.) |
| ACCAGTGAAAGAGGTCGACGTATATGTAGTCGTTGTTTCGCGGAGTCACCTAGTGCAG | 3140 fluorescence intensity (a.u.) |
| ACCTTCTCGGTCGACATCGGAGATTAACCTAGACAAACCCCGGAGTCACCTAGTGCAG | 3240 fluorescence intensity (a.u.) |
| AAATGGCACCGCTACAGTCTCCCCAAAGCTCCCACGTCCTCGGAGTCACCTAGTGCAG | 3690 fluorescence intensity (a.u.) |
| ATATTCGTCTCTATCGCTTAAGGCGGTTAGTTGCGTGTCACGGAGTCACCTAGTGCAG | 3930 fluorescence intensity (a.u.) |
| GAATACTCTGTGAGCCTGTGTTGTGAGTTGTGACGAGGCACGGAGTCACCTAGTGCAG | 5670 fluorescence intensity (a.u.) |
| GACCGAGAGCGGCAGGGGCGCAGAGCGCGACGCCAAGTCACGGAGTCACCTAGTGCAG | 3590 fluorescence intensity (a.u.) |
| AGCGACACGAGCGTCACGTGTCACGCTTACTCGAGTCATCCGGAGTCACCTAGTGCAG | 6240 fluorescence intensity (a.u.) |
| GACTCCAAAATGTATGTATGTATGACGGGTGGGACCAGACCGGAGTCACCTAGTGCAG | 4020 fluorescence intensity (a.u.) |
| TCGACATTCTAGCGAAAATAATTTTGAAAACACACAAAGTCGGAGTCACCTAGTGCAG | 3830 fluorescence intensity (a.u.) |
| CCAGTGTTGTACAAACACTATATTACATGTCAATTTGACACGGAGTCACCTAGTGCAG | 3260 fluorescence intensity (a.u.) |
| TCCAAGTATATGTATGTGGCAGTGTGTACTCCGCAGTTTACGGAGTCACCTAGTGCAG | 4530 fluorescence intensity (a.u.) |

| Sequence | binding signal |
| --- | --- |
| GCTGTCATGAGGACATGTCTTATTCTTGCGCGTGGCATGTCGGAGTCACCTAGTGCAG | 4580 fluorescence intensity (a.u.) |
| TTGCTTACGGATTAAAAGGGAGGTCTTGACTCAACCCGTCCGGAGTCACCTAGTGCAG | 3700 fluorescence intensity (a.u.) |
| GAATCAGCTTGCTGACGTTAGAGGTTTCAGTTTACCTAATCGGAGTCACCTAGTGCAG | 5180 fluorescence intensity (a.u.) |
| AGGTTGCTATGCCGCCGTCCACGAGTGATGTCACCTTCATCGGAGTCACCTAGTGCAG | 10200 fluorescence intensity (a.u.) |
| TTCTTTGGTGGTTTTGATCCGATTTTGTCCTACGTGGCGGCGGAGTCACCTAGTGCAG | 20100 fluorescence intensity (a.u.) |
| AGCTACCTTTGAATTGTCTGGTCATGCCGGGCTGGTTGATCGGAGTCACCTAGTGCAG | 3490 fluorescence intensity (a.u.) |
| GTGTGTTGCTTACACATCGACCAAACAAATAAAATCAGTGCGGAGTCACCTAGTGCAG | 4480 fluorescence intensity (a.u.) |
| TAGGCCCAATCTCCATCCCCGCCACAGCTGACCACTCCGTCGGAGTCACCTAGTGCAG | 3370 fluorescence intensity (a.u.) |
| CTAGACCAGATGAGCGAACTCCAAAACTGGATTGTCCATGCGGAGTCACCTAGTGCAG | 3200 fluorescence intensity (a.u.) |
| CCACTGTTTTCCACTACTTAGTGTGCTTACTCATGGGCTCCGGAGTCACCTAGTGCAG | 5110 fluorescence intensity (a.u.) |
| ACGGCTCGTGATCAGCATCGCGCCACGTGTCCGTCCCACCCGGAGTCACCTAGTGCAG | 23500 fluorescence intensity (a.u.) |
| AATGTTTGTAGCACGGGAGGCATACCACATACATACATTGCGGAGTCACCTAGTGCAG | 3640 fluorescence intensity (a.u.) |
| ACATGTGGGTCCTGTTGACATGTAGGTGCCACCTTGGCATCGGAGTCACCTAGTGCAG | 4440 fluorescence intensity (a.u.) |
| CGAGACTATCATCTAATGGACAACTCATCTTTTAATTGTGCGGAGTCACCTAGTGCAG | 5180 fluorescence intensity (a.u.) |
| GCCTCGCGCCGTGACCACGTCCACGACGACGAGGACGACGCGGAGTCACCTAGTGCAG | 3490 fluorescence intensity (a.u.) |
| TACTACTACTTCTCGGCCGGTATGACGTTCGCCGACGATTCGGAGTCACCTAGTGCAG | 3160 fluorescence intensity (a.u.) |
| AGGGAGTAGTATAGAATAAGGGCCTGTTTAGATCCCCGGTCGGAGTCACCTAGTGCAG | 5040 fluorescence intensity (a.u.) |
| TACTCCTTTCGTCTCCAACCCCTCGCCGCCGCCGCCACCCCGGAGTCACCTAGTGCAG | 3180 fluorescence intensity (a.u.) |
| CGAGACGTGCCTGCGGCGGTGCGGCGACGTGGAGATCCCGCGGAGTCACCTAGTGCAG | 4840 fluorescence intensity (a.u.) |
| GGTCATTAGCCCCTGCTACTACCGCCGCCACGCCGTCGTCCGGAGTCACCTAGTGCAG | 3520 fluorescence intensity (a.u.) |
| GGGAAGGGTGACGGTGGTGCACATATGTGTGTGTGGCTGCCGGAGTCACCTAGTGCAG | 3420 fluorescence intensity (a.u.) |

Single values from the list.
binding signal with TTCTTTGGTGGTTTTGATCCGATTTTGTCCTACGTGGCGGCGGAGTCACCTAGTGCAG is entered as 20100 fluorescence intensity (a.u.)
binding signal with AGGTTGCTATGCCGCCGTCCACGAGTGATGTCACCTTCATCGGAGTCACCTAGTGCAG is entered as 10200 fluorescence intensity (a.u.)
